Results are given in words; binding and its absence hold for the method and conditions named. Binding seen in cells or lysates may run through a third protein. Some results given as binding are weak or reduced against the parent protein; the word gives no strength.
Molecular target: T1, CDKN2AIP (mouse (endogenous in MIN6)) (UniProt Q8BI72)
T1 sequence: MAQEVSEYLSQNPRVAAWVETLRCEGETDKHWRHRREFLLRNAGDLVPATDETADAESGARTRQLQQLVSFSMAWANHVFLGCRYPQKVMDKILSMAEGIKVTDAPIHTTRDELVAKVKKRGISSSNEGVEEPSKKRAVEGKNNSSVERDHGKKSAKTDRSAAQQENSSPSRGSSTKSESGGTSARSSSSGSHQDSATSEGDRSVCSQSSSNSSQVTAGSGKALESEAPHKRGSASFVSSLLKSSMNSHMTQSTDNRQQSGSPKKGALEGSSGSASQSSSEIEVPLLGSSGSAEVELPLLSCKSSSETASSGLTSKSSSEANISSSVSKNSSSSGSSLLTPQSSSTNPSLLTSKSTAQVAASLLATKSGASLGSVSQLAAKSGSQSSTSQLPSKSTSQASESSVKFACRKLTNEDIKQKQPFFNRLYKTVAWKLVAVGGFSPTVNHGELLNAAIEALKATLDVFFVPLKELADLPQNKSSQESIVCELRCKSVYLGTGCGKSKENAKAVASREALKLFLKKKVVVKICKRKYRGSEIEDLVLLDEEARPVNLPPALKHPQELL
Experiment: co-IP; MIN6 cells treated with taurine (100 uM, 24 h) or vehicle; lysate (50 mM Tris-HCl pH 7.4, 150 mM NaCl, 1% NP-40, 0.5% sodium deoxycholate, 0.1% SDS) incubated with anti-CDKN2AIP antibody or control IgG overnight at 4°C, protein A/G agarose beads, immunoblot

Protein sequences, listed by entry. Tags and fused reporters are not part of them.
UniProt P02340: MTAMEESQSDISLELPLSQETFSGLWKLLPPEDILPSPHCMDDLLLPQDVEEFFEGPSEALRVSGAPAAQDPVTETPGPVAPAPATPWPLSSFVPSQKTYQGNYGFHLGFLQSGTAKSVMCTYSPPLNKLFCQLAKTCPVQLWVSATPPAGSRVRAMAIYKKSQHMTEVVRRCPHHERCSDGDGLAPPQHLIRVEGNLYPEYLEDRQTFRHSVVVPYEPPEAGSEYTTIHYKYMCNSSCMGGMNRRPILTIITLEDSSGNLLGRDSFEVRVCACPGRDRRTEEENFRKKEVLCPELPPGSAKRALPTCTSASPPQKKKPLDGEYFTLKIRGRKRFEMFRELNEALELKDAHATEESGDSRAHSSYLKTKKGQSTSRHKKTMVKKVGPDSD

binding: binds
Substance: p53 (from UniProt P02340 1-390)
